# Source: the supplement of paper PMC11732987, “Enantioselective OTUD7B fragment discovery through chemoproteomics screening and high-throughput optimisation” (Communications Chemistry, 2025)
# Chains of the proteins cited; added tags and fusions are not shown. Lines headed by an entry give the natural chain unless they say otherwise; changes in a name come on top. Residues count along the entry.
# UniProt Q9H3H5: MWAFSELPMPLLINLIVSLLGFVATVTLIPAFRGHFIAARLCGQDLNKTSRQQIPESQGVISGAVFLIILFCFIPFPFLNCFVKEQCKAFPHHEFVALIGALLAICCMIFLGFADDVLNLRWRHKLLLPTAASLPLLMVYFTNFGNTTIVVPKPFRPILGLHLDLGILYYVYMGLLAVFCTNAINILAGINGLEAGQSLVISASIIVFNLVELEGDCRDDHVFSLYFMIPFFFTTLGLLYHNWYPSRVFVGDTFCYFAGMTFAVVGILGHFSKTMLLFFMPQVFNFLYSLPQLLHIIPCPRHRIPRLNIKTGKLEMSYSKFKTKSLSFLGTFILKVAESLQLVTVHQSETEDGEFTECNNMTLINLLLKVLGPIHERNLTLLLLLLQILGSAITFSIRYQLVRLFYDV
# UniProt O00429: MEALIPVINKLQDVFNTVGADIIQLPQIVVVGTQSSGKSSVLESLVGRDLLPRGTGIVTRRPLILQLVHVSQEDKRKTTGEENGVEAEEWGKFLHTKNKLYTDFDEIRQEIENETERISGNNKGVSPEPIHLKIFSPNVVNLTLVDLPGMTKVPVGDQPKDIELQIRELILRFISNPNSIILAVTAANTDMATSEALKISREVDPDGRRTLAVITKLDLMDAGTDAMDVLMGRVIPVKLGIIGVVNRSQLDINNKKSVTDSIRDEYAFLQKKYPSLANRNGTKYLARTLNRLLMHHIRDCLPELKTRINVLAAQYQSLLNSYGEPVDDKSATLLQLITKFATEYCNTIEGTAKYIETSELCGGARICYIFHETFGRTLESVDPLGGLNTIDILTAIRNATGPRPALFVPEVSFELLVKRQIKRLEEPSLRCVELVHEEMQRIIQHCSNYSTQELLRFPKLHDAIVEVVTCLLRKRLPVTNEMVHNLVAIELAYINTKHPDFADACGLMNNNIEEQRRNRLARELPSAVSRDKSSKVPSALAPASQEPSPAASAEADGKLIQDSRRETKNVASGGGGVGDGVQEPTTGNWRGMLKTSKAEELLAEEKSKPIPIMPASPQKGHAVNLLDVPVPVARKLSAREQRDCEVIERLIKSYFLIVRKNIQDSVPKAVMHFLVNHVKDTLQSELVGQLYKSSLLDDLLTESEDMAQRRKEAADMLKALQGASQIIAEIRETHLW
# UniProt Q8IX18: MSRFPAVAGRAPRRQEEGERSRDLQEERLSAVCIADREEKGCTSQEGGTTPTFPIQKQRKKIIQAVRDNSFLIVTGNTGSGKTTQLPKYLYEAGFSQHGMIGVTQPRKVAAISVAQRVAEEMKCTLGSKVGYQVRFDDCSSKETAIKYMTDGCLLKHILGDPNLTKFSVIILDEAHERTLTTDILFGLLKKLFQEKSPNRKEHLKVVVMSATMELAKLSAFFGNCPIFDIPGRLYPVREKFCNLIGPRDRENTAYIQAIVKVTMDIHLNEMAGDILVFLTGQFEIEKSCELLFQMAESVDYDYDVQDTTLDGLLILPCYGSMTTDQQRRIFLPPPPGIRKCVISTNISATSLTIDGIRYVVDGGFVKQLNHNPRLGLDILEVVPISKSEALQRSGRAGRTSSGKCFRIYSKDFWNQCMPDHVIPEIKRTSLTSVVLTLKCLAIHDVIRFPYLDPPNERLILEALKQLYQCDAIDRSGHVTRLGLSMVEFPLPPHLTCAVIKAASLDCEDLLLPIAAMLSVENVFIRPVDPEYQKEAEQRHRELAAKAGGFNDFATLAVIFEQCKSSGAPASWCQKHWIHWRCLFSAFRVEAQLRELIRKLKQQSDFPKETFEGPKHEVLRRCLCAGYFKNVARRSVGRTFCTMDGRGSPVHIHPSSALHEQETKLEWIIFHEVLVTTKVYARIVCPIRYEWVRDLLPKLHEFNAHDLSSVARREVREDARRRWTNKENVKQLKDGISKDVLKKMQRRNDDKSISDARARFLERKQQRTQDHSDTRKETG
# UniProt Q9BTZ2, 65-92: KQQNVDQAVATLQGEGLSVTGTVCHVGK
# UniProt O75140: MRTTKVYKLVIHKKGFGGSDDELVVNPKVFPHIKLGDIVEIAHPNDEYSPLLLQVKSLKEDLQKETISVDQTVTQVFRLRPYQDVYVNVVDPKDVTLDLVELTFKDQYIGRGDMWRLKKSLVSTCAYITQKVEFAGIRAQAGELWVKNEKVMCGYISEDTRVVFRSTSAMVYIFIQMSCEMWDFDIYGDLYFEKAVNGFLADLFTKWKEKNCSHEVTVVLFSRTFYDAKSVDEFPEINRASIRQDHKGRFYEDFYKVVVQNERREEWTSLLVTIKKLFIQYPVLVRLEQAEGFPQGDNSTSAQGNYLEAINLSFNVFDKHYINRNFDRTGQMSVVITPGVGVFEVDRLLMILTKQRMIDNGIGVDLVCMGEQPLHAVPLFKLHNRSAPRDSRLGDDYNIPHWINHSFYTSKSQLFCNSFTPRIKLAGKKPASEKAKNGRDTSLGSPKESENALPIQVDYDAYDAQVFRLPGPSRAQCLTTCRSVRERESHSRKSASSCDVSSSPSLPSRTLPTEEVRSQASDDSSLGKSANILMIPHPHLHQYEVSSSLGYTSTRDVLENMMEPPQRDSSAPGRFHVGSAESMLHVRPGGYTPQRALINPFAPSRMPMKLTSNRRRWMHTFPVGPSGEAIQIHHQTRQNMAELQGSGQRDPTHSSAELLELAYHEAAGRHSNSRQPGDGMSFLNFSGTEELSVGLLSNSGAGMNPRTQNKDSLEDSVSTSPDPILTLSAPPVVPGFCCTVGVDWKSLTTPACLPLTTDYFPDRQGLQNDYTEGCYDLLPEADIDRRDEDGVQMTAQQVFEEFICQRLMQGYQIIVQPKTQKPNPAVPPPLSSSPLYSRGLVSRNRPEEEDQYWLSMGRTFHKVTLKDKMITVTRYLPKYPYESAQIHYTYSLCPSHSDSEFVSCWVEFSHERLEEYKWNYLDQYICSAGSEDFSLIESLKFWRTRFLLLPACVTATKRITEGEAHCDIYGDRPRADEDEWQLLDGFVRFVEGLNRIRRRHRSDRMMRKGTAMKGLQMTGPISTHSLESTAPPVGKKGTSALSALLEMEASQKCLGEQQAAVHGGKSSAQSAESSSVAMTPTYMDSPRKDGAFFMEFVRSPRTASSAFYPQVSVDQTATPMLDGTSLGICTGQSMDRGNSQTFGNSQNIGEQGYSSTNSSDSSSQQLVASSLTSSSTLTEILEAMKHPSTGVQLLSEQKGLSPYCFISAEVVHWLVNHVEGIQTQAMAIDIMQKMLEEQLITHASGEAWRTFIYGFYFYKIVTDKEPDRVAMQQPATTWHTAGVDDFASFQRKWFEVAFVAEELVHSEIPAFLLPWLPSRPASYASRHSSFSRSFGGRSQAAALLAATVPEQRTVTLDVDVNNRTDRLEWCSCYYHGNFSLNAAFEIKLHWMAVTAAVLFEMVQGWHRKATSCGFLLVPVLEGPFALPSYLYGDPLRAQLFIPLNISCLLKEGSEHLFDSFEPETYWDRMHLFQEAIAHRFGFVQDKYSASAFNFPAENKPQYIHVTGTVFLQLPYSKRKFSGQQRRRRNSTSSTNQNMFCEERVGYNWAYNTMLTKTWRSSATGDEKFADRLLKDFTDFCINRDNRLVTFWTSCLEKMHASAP
# UniProt Q86Y56: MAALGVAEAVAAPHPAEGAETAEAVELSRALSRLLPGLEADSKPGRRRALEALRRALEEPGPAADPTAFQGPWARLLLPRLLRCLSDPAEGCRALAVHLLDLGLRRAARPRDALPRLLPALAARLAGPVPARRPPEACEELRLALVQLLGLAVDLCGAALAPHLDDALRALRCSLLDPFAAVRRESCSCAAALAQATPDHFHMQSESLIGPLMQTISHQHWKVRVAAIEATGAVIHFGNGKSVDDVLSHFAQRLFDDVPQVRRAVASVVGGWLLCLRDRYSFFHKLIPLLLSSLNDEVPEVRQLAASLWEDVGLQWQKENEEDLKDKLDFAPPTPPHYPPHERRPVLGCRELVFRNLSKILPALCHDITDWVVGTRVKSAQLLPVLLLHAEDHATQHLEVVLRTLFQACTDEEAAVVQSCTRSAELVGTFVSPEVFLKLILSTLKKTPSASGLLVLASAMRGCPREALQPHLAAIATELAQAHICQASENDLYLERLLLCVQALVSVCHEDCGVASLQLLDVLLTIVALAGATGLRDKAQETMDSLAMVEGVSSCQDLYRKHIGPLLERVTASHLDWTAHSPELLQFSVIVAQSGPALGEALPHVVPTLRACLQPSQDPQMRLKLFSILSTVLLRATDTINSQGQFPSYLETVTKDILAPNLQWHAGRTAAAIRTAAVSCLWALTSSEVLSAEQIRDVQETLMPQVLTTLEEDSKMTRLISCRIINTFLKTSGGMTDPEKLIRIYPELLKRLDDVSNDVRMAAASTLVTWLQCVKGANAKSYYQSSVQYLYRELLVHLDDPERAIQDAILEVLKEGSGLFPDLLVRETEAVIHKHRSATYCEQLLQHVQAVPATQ
# UniProt Q9UDY4: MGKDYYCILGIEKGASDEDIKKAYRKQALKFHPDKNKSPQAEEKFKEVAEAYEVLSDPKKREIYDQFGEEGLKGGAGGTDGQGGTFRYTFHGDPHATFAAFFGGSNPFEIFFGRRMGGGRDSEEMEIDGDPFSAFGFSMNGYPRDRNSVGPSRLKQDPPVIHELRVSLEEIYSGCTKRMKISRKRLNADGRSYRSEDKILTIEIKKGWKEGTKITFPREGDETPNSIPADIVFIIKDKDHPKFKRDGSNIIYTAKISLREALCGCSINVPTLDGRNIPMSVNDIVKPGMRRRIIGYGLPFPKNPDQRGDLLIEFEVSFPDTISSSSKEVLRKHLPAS
# UniProt Q7Z478: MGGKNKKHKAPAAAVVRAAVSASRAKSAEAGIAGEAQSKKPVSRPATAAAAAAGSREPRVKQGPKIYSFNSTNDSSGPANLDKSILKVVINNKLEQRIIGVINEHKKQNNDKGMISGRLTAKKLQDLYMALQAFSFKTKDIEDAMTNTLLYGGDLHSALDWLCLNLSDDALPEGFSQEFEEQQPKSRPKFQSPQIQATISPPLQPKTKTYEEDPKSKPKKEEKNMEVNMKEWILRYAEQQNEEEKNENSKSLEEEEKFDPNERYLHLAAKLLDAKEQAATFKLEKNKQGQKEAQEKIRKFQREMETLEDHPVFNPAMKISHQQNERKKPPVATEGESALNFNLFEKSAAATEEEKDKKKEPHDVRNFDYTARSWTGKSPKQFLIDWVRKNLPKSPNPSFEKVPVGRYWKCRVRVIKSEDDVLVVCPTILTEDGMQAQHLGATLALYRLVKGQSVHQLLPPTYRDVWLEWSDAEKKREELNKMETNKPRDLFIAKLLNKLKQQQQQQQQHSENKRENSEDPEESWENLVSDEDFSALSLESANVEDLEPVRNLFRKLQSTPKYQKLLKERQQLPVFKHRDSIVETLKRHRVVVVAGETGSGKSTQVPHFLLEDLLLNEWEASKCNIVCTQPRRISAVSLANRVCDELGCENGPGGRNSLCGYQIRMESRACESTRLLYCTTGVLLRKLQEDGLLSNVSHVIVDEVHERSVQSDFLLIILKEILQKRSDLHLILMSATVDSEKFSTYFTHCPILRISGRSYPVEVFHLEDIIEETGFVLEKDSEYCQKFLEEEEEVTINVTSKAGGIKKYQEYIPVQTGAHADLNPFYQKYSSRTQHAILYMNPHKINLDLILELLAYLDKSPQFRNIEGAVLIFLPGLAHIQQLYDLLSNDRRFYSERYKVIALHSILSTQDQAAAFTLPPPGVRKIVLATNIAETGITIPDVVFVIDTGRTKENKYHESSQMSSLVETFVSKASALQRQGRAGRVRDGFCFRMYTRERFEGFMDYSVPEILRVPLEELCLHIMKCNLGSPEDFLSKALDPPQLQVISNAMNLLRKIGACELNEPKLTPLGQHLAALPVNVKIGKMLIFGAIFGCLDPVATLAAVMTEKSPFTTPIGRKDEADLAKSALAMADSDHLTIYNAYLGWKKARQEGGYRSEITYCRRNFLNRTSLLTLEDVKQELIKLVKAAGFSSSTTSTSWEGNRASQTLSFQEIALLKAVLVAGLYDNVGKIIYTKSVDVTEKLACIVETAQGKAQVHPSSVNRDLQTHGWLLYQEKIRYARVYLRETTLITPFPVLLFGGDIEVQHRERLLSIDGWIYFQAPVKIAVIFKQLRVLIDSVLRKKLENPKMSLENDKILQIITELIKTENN
# UniProt Q9P2X0: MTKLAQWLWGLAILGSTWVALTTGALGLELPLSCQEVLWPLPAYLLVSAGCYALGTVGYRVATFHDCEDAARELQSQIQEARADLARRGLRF
# This is one part of the list. The data scatter; read single values as rough.
# Assays:
# [1] = compound: ClCC(=O)N[C@@H]1CCCc2ccccc12; assay: log2 mean competition ratio of IA-DTB cysteine labelling (DMSO/compound) (log2 ratio); higher = stronger cysteine engagement by compound; conditions: treatment time: 4 h, cell line lysate: HEK293T
# Method: (§1)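 IA-DTB competitive cysteine chemoproteomics in HEK293T RIPA lysate. Lysates were treated with compound 29 or 30 at 50 or 200 µM for 4 h, then IA-DTB (500 µM, 1 h), trypsin-digested, NeutrAvidin-enriched and analysed by diaPASEF. Competition ratio = intensity DMSO / intensity compound (n=4 treated, n=64 DMSO); binding: mean log2 CR ≥ 1 and p ≤ 0.05 plus QC filters. Target is the cysteine site.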
# [2] = compound: ClCC(=O)N[C@H]1CCCc2ccccc12; assay: as above; conditions: treatment time: 4 h, cell line lysate: HEK293T
# Method: as §1
target,measurement,setting,value
DPAGT1 C42 (UniProt Q9H3H5),log2 mean competition ratio,[1]; 50 µM,-0.173
same,log2 mean competition ratio,[1]; 200 µM,-0.257
same,log2 mean competition ratio,[2]; 50 µM,-0.218
same,log2 mean competition ratio,[2]; 200 µM,-0.24
DNM1L C345 (UniProt O00429),log2 mean competition ratio,[1]; 50 µM,-0.193
same,log2 mean competition ratio,[1]; 200 µM,-0.408
same,log2 mean competition ratio,[2]; 50 µM,-0.148
same,log2 mean competition ratio,[2]; 200 µM,-0.392
DPYSL2 C504 (UniProt Q16555),log2 mean competition ratio,[1]; 50 µM,-0.12
same,log2 mean competition ratio,[1]; 200 µM,-0.136
same,log2 mean competition ratio,[2]; 50 µM,-0.0234
same,log2 mean competition ratio,[2]; 200 µM,-0.102
DIAPH3 C1158 (UniProt Q9NSV4),log2 mean competition ratio,[1]; 50 µM,-0.177
same,log2 mean competition ratio,[1]; 200 µM,0.0488
same,log2 mean competition ratio,[2]; 50 µM,-0.118
same,log2 mean competition ratio,[2]; 200 µM,0.21
DIPK2A C402 (UniProt Q8NDZ4),log2 mean competition ratio,[1]; 50 µM,-0.0268
same,log2 mean competition ratio,[1]; 200 µM,0.0215
same,log2 mean competition ratio,[2]; 50 µM,-0.405
same,log2 mean competition ratio,[2]; 200 µM,-0.0552
DHX40 C33 (UniProt Q8IX18),log2 mean competition ratio,[1]; 50 µM,-0.0423
same,log2 mean competition ratio,[1]; 200 µM,0.0907
same,log2 mean competition ratio,[2]; 50 µM,-0.306
same,log2 mean competition ratio,[2]; 200 µM,0.0768
DHRS4 C88 (UniProt Q9BTZ2),log2 mean competition ratio,[1]; 50 µM,-0.0785
same,log2 mean competition ratio,[1]; 200 µM,0.0799
same,log2 mean competition ratio,[2]; 50 µM,0.677
same,log2 mean competition ratio,[2]; 200 µM,-0.491
DEPDC5 C498 (UniProt O75140),log2 mean competition ratio,[1]; 50 µM,-0.238
same,log2 mean competition ratio,[1]; 200 µM,-0.439
same,log2 mean competition ratio,[2]; 50 µM,0.123
same,log2 mean competition ratio,[2]; 200 µM,-0.23
DHX37 C1083 (UniProt Q8IY37),log2 mean competition ratio,[1]; 50 µM,0.00925
same,log2 mean competition ratio,[1]; 200 µM,0.104
same,log2 mean competition ratio,[2]; 50 µM,-0.11
same,log2 mean competition ratio,[2]; 200 µM,0.128
DNPEP C337,log2 mean competition ratio,[1]; 50 µM,0.252
same,log2 mean competition ratio,[1]; 200 µM,0.0578
same,log2 mean competition ratio,[2]; 50 µM,0.109
same,log2 mean competition ratio,[2]; 200 µM,-0.158
DNAAF5 C841 (UniProt Q86Y56),log2 mean competition ratio,[1]; 50 µM,-0.215
same,log2 mean competition ratio,[1]; 200 µM,-0.206
same,log2 mean competition ratio,[2]; 50 µM,0.304
same,log2 mean competition ratio,[2]; 200 µM,-0.284
DMXL1 C1539 (UniProt Q9Y485),log2 mean competition ratio,[1]; 50 µM,-0.128
same,log2 mean competition ratio,[1]; 200 µM,-0.162
same,log2 mean competition ratio,[2]; 50 µM,-0.154
same,log2 mean competition ratio,[2]; 200 µM,-0.176
DNAJB4 C7 (UniProt Q9UDY4),log2 mean competition ratio,[1]; 50 µM,0.0625
same,log2 mean competition ratio,[1]; 200 µM,0.286
same,log2 mean competition ratio,[2]; 50 µM,-0.0386
same,log2 mean competition ratio,[2]; 200 µM,0.124
DHX29 C1161 (UniProt Q7Z478),log2 mean competition ratio,[1]; 50 µM,0.266
same,log2 mean competition ratio,[1]; 200 µM,-0.0837
same,log2 mean competition ratio,[2]; 50 µM,0.474
same,log2 mean competition ratio,[2]; 200 µM,-0.0521
DPM3 C67 (UniProt Q9P2X0),log2 mean competition ratio,[1]; 50 µM,0.133
same,log2 mean competition ratio,[1]; 200 µM,0.0783
same,log2 mean competition ratio,[2]; 50 µM,0.0272
same,log2 mean competition ratio,[2]; 200 µM,-0.0272
DIPK2A C126 (UniProt Q8NDZ4),log2 mean competition ratio,[1]; 50 µM,-0.0799
same,log2 mean competition ratio,[1]; 200 µM,0.357
same,log2 mean competition ratio,[2]; 50 µM,-0.181
same,log2 mean competition ratio,[2]; 200 µM,0.376

# Some of the entries above in another layout:
target	measurement	setting	value
DNPEP C337	log2 mean competition ratio	[2]; 50 µM	0.109
same	log2 mean competition ratio	[2]; 200 µM	-0.158
DNAAF5 C841 (UniProt Q86Y56)	log2 mean competition ratio	[1]; 50 µM	-0.215
same	log2 mean competition ratio	[1]; 200 µM	-0.206
same	log2 mean competition ratio	[2]; 50 µM	0.304
same	log2 mean competition ratio	[2]; 200 µM	-0.284
DMXL1 C1539 (UniProt Q9Y485)	log2 mean competition ratio	[1]; 50 µM	-0.128
same	log2 mean competition ratio	[1]; 200 µM	-0.162
same	log2 mean competition ratio	[2]; 50 µM	-0.154
same	log2 mean competition ratio	[2]; 200 µM	-0.176
DNAJB4 C7 (UniProt Q9UDY4)	log2 mean competition ratio	[1]; 50 µM	0.0625
same	log2 mean competition ratio	[1]; 200 µM	0.286
same	log2 mean competition ratio	[2]; 50 µM	-0.0386
same	log2 mean competition ratio	[2]; 200 µM	0.124
DHX29 C1161 (UniProt Q7Z478)	log2 mean competition ratio	[1]; 50 µM	0.266
